Values of other authors as cited in patent US20240182910A1, “DRUG-REGULATABLE TRANSCRIPTION FACTORS” (Senti Biosciences, Inc., priority 2021, published 2024).
For at least one compound, name, drawing or mass did not settle the structure.

Legend:
tTAE-KRAB = system: tTAE-KRAB; set-up: key to Response to inducer: T (transgene transcription): A, activation; DA, deactivation; DR, derepression; key to Response to inducer: TF (transcription factor): B, binding; D, dissociation; settings: TET-OFFE-ON (NOT IF gate); OtetO7-OETR8-PhCMVmin; cited from earlier work
tTAPIT3E-KRAB = system: tTAPIT3E-KRAB; set-up: key to Response to inducer: T (transgene transcription): A, activation; DA, deactivation; DR, derepression; key to Response to inducer: TF (transcription factor): B, binding; D, dissociation; settings: TET-OFFPIP-ONE-ON; OtetO7-OPIR3-OETR8-PhCMVmin; cited from earlier work

## CN(C)[C@@H]1C(O)=C(C(N)=O)C(=O)[C@@]2(O)C(O)=C3C(=O)c4c(O)cccc4[C@@](C)(O)[C@H]3C[C@@H]12 [Tetracycline]
tTAE-KRAB
  Response to inducer: T (transgene transcription): DA
  Response to inducer: TF (transcription factor): D
tTAPIT3E-KRAB
  Response to inducer: T (transgene transcription): DA
  Response to inducer: TF (transcription factor): D
